# Data: PubChem BioAssay AID1487 (National Center for Advancing Translational Sciences (NCATS), 2009)
# Some of the results follow. Further columns of the screen follow, without active or inactive calls. Compounds called inactive in the main read-out are mostly missing here. Words in brackets tell the shape of the fitted curve; partial curves, single points and poor fits give uncertain potencies.
# Assay: qHTS Assay for Modulators of Lamin A Splicing
# Conditions: HeLa LMNA splicing GFP/RFP minigene ratio, 48 h
# Outline: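 S3 HeLa cells stably expressing lamin A-EGFP splicing minigene plus DsRed2, 600 cells/well, 48 h compound exposure at 37C. Laser-scanning cytometry; analysed as GFP (500-530 nm)/RFP (575-640 nm) total intensity ratio; 0.5% DMSO vehicle.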
# [1] = measured here: GFP splicing reporter channel
# [2] = measured here: RFP viability control channel
SMILES,AC50 [1],AC50 [2]
Cc1c(Br)c([N+](=O)[O-])nn1CC(=O)NCc1ccccc1,"8.91 µM [rising, partial curve]",–
CC(/C=N/NC(=O)c1ccco1)=C\c1ccccc1,"0.562 µM [rising, partial curve, poor fit]",–
O=C(NC(=S)Nc1ccccc1Cl)c1cnn2c(C(F)(F)F)cc(C(F)(F)F)nc12,"6.31 µM [falling, single point]","4.47 µM [falling, full curve]"
CN(c1ccc(C(=O)Nc2nccs2)cc1)S(=O)(=O)c1ccccc1,–,"14.1 µM [rising, partial curve]"
COC(=O)c1ccc(C(=O)Nc2nnc(-c3cccnc3)o2)cc1,–,"3.55 µM [rising, partial curve, poor fit]"
CC(C)Cn1c(-c2ccco2)nc2c(c(=O)c3ccccc3n2C)c1=O,–,"14.1 µM [rising, single point]"
COc1ccc(S(=O)(=O)N2CCN(c3cc(-c4ccccc4)nc4ncnn34)CC2)cc1,"11.2 µM [rising, partial curve]","14.1 µM [rising, partial curve]"
Brc1ccc(Nc2nc(-c3cccnc3)cs2)cc1,"25.1 µM [falling, single point]","11.2 µM [falling, single point]"
Cn1c(=O)n(C)c2cc(NS(=O)(=O)c3cccs3)ccc21,"35.5 µM [falling, single point]","20 µM [falling, single point]"
O=C(CCl)N1c2ccccc2OCC1c1ccccc1 (centres undefined),"31.6 µM [falling, single point]","35.5 µM [falling, single point]"
Cc1cc(NC(=O)CSc2nccn2-c2cccc(C)c2C)no1,–,"0.00708 µM [falling, full curve]"
CC(C)c1ccc(C2=CC(c3ccc(C(C)C)cc3)n3nnnc3N2)cc1 (centres undefined),"14.1 µM [rising, partial curve]","11.2 µM [rising, partial curve, poor fit]"
Cc1ccccc1NC(=O)c1ccc(CN(c2ccccc2)S(=O)(=O)c2ccccc2)cc1,"7.94 µM [rising, partial curve]",–
NC(N)=Nc1nc2cc([N+](=O)[O-])ccc2o1,"11.2 µM [falling, partial curve, poor fit]",–
CN(c1cccc(NC(=O)c2ccc(N(C)S(=O)(=O)c3ccccc3)cc2)c1)S(C)(=O)=O,"0.0141 µM [rising, full curve, poor fit]","25.1 µM [rising, partial curve, poor fit]"
O/N=C1\CC/C(=N\O)c2nn(-c3ccc(Cl)cc3Cl)nc21,–,"22.4 µM [rising, partial curve, poor fit]"
O=C(Nc1cccnc1)c1ccc(-c2ccccc2)cc1,–,"7.94 µM [rising, partial curve, poor fit]"
COc1ccc(CN(Cc2cc3cc4c(cc3[nH]c2=O)OCO4)C(=O)NC2CCCCC2)cc1,–,"14.1 µM [rising, single point]"
Cc1onc(-c2ccccc2Cl)c1C(=O)Nc1cccc2cccnc12,–,"6.31 µM [rising, full curve]"

SMILES,AC50 [1],AC50 [2]
CCOC(=O)C(NC(=O)CCl)(Nc1sc(C)c(CC)c1C#N)C(F)(F)F (centres undefined),"35.5 µM [rising, single point]",–
Cc1ccccc1OCc1nc2ccccc2c(=O)n1/N=C/c1ccco1,–,"11.2 µM [rising, single point]"
CCn1cc(CN2CCN(Cc3cccc(OC)c3)C(CCO)C2)c(C)n1 (centres undefined),"14.1 µM [falling, partial curve]",–
Cn1nc(-c2ccc(NCCO)c([N+](=O)[O-])c2)c2ccccc2c1=O,–,"7.94 µM [rising, partial curve]"
Cc1cc(N2C(=O)C3C4CC(C(Br)C4Br)C3C2=O)no1 (centres undefined),"0.01 µM [falling, full curve, poor fit]",–
S=C(NNc1cccc(Cl)c1)NC1CCCCC1,–,"31.6 µM [rising, single point]"
COc1ccc(C(=O)NC(=S)Nc2ccc(CN3CCCCC3)cc2)cc1Cl,–,"1.12 µM [falling, full curve, poor fit]"
CCOC(=O)c1c(NC(=O)Cc2cccs2)sc2c1CCCC2,–,"8.91 µM [rising, single point]"
CCC(=O)Nc1ccccc1C(=O)OCC(=O)c1ccccc1,–,"5.62 µM [falling, single point]"
Cc1ccc(/C=C/c2onc(C)c2S(=O)(=O)N2CCC(C(=O)N3CCC(N(C)C(C)C)CC3)CC2)cc1,"12.6 µM [falling, partial curve]","28.2 µM [falling, partial curve]"
CC(C)(C)c1nc2c(C#N)c(-c3ccc(Cl)cc3)ccn2n1,–,"31.6 µM [rising, single point]"
COc1ccc(Nc2oc(-c3ccc(Cl)cc3)nc2C#N)cc1,–,"0.0316 µM [falling, single point]"
Cc1cccc(C)c1NS(=O)(=O)c1ccc(NC(=O)c2ccc(Cl)c([N+](=O)[O-])c2)cc1,"25.1 µM [falling, single point]","25.1 µM [falling, single point]"
CC(=O)NC(=S)NNC(=O)c1ccc(Br)cc1,"1.78 µM [falling, partial curve, poor fit]","31.6 µM [rising, single point]"
CCN1CCN(c2cc(N3CCc4ccccc4C3)c(F)cc2[N+](=O)[O-])CC1,–,"17.8 µM [rising, single point]"
O=C1CSC(c2ccccc2[N+](=O)[O-])N1c1ccccc1 (centres undefined),"5.01 µM [rising, single point]",–
NCCNc1ccc([N+](=O)[O-])c(Sc2nc3ccccc3[nH]2)c1,–,"7.08 µM [rising, partial curve]"
Cc1ccc2c(c1)cc(CN(Cc1ccco1)C(=O)COc1ccccc1)c1nnnn12,"15.8 µM [rising, single point]","35.5 µM [rising, single point]"
Cc1ccc(C)c(CSc2ccc3nnc(-c4ccccn4)n3n2)c1,"0.0224 µM [falling, full curve, poor fit]",–

SMILES,AC50 [1],AC50 [2]
CCOC(=O)c1c(C)[nH]c(C)c1C(=O)CSc1nc2ccccc2c(=O)n1-c1ccc(F)cc1,–,"3.16 µM [rising, full curve, poor fit]"
COc1cccc(C(CC(=O)Nc2cccc3ccccc23)NC(=O)c2ccccc2)c1 (centres undefined),"22.4 µM [falling, single point]","35.5 µM [falling, single point]"
COc1cccc(-c2cc(C(=O)Nc3cc(Cl)ccc3O)on2)c1,"25.1 µM [falling, partial curve, poor fit]","0.02 µM [falling, full curve, poor fit]"
CCCNC(=O)c1cccc(Cn2nc(C)c(Br)c2C)c1,–,"31.6 µM [rising, single point]"
CCOC(=O)Cn1c(=O)c2c(nc(Br)n2Cc2ccccc2)n(C)c1=O,–,"35.5 µM [rising, single point]"
CSc1ccc(C(=O)/C=C/c2ccc(N)cc2)cc1,–,"14.1 µM [rising, single point]"
O=[N+]([O-])c1cc(C(F)(F)F)ccc1Oc1cccnc1[N+](=O)[O-],"11.2 µM [rising, single point]",–
CC(=O)OCC1=C(C(=O)O)N2C(=O)[C@@H](NC(=O)CSc3ccncc3)[C@@H]2SC1,"0.00282 µM [falling, full curve, poor fit]","0.00631 µM [falling, full curve, poor fit]"
COc1ccc(-n2cnnc2SCC(=O)c2ccc(S(=O)(=O)N3CCOCC3)cc2)cc1,"17.8 µM [rising, single point]","15.8 µM [rising, single point]"
O=C(CCl)Nc1cccc(-c2cnc3ccccc3n2)c1,–,"35.5 µM [falling, single point]"
COc1ccc(NS(=O)(=O)c2ccc(OC)c3ccccc23)cn1,"22.4 µM [rising, partial curve, poor fit]","28.2 µM [rising, partial curve]"
CCn1c(COc2cccc(C)c2)nnc1SCC(=O)CC(=O)Nc1ccccc1OC,–,"10 µM [rising, partial curve, poor fit]"
Cc1noc(C)c1-c1ccc2ncnc(N3CCOCC3)c2c1,"10 µM [falling, partial curve]",–
O=C(CSCCO)Nc1ccc([N+](=O)[O-])cc1,–,"7.94 µM [falling, full curve]"
CCCCc1nc2c(c3c1C[C@H](C)OC3)CN(C(=O)Nc1cccc(C#N)c1)CC2,"0.00708 µM [falling, full curve, poor fit]","1.12 µM [falling, full curve, poor fit]"
COc1ccc(NC(=O)CC23CC4CC(CC(C4)C2)C3)cn1,"35.5 µM [falling, single point]",–
Cc1ccc(C)c(NC(=O)CN2C(=O)CCc3ccccc32)c1,–,"0.0891 µM [falling, full curve, poor fit]"
O=C(NCCOc1cccc(Oc2ccccc2)c1)c1cc(-n2cnnc2)ccc1Cl,–,"3.98 µM [rising, single point]"
CCc1ccc(-c2nc(CSCC(=O)N3CCN(c4ncccn4)CC3)c(C)o2)cc1,–,"17.8 µM [rising, single point]"

# Reprinted at random: 5 entries already listed, in no set order.
SMILES,AC50 [1],AC50 [2]
COc1ccc(-n2cnnc2SCC(=O)c2ccc(S(=O)(=O)N3CCOCC3)cc2)cc1,"17.8 µM [rising, single point]","15.8 µM [rising, single point]"
CSc1ccc(C(=O)/C=C/c2ccc(N)cc2)cc1,–,"14.1 µM [rising, single point]"
O=C(CCl)Nc1cccc(-c2cnc3ccccc3n2)c1,–,"35.5 µM [falling, single point]"
CCOC(=O)Cn1c(=O)c2c(nc(Br)n2Cc2ccccc2)n(C)c1=O,–,"35.5 µM [rising, single point]"
Cc1ccc(C)c(NC(=O)CN2C(=O)CCc3ccccc32)c1,–,"0.0891 µM [falling, full curve, poor fit]"
